# Assay results published in PubChem BioAssay.
# Inconclusive results, whose numbers are uncertain, are shown with a selection of clear calls. Active and inactive are the calls of the source.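 The calls were made as follows, unless noted: active = growth inhibition above a set limit, 3 SD over mean compound inhibition, in both replicates (cut at about 43% in these data); inconclusive = above the limit in only one replicate; inactive = at or below the limit in both replicates.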
# Experiments:
# [1] = doxorubicin toxicity protection in MRP-1 cells – H69AR cells, CellTiter-Glo, duplicate, MRP-1 activator project, pilot screen (AID 807;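 active = viability increase at or above a cutoff of the median across tested compounds plus 3 SD, cut at about 8.5% in these data, passing the limit was not always enough; inconclusive = some gains above the cutoff, reason not given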;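 also: compound pretreatment 18-22 h then 72 h combined with doxorubicin; 0% = doxorubicin alone and 100% = vehicle without doxorubicin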); settings: H69AR viability with doxorubicin, CellTiter-Glo luminescence; at 10 µM; stronger effect = higher value
# [2] = S. cerevisiae growth inhibition in restrictive medium, OD615, pilot screen, restrictive growth control, yeast lifespan reduction project (AID 706); settings: OD615, 48 h, at 10 µM, stronger effect = higher value;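 also: modified DeaD lifespan yeast strain shifted to restrictive glucose medium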
# Method in brief: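 material = engineered S. cerevisiae DeaD strain | medium = glucose-based CSMM-D restrictive medium | times = 4 h pre-incubation, 48 h exposure at 30 °C | technique = OD615 absorbance reading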
# [3] = viability of HCT116 without oncogenic beta-catenin – human colon tumor cells, pilot screen (AID 823;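 active = cell viability at or below a set limit in both duplicate runs, the limit being the all-compound median minus 4 SD, cut at about 23% in these data, passing the limit was not always enough; inconclusive = no clear call, values can overlap the other calls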;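 also: 0% = wells killed by 20 µM Hyamine and 100% = untreated DMSO cell wells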); settings: HCT116 beta-catenin knockout viability, CellTiter-Glo, 60 h; at 10 µM; stronger effect = lower value
# [4] = viability of PTEN-null HCT116 cells – cell-based, HCT116 clonal line, CellTiter-Glo, pilot screen (AID 824;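 active = viability at or below 27.92% in each of two runs, the all-compound median minus 4 SD; inconclusive = no clear call, values can overlap the other calls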;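 also: 0% = 20 µM Hyamine control and 100% = vehicle cell control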); settings: HCT116 PTEN-deleted viability, 60 h, at 10 µM, stronger effect = lower value
# [5] = RAM pathway blockade in budding yeast – dse1pr::URA3 reporter, 5-FOA selection, pilot screen (AID 869;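 active = inhibition over a set limit, the all-compound mean plus 3 SD, in both replicate runs; inconclusive = over that limit in just one replicate run; inactive = at or under that limit in both runs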;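 also: 0% = DMSO wells with no growth and 100% = 10 µM 1-NA-PP1 with full growth; RAM network block rescues cells from 5-FOA so hits raise OD615 growth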); settings: S. cerevisiae dse1pr::URA3 5-FOA growth, OD615, 2 d; at 10 µM; stronger effect = higher value; strain carries analog-sensitive mutant Cbk1 kinase
smiles,measurement,setting,value
CC1CCc2nn(CC(=O)N3CCN(C(=O)c4ccco4)CC3)cc2C1 (stereo not drawn),viability increase,[1],inconclusive: 8.77%
CCCCS(=O)(=O)/C=C\C=C/S(=O)(=O)CCCC,growth inhibition,[2],active: 60%
same,viability,[3],active: 1.4%
same,viability,[4],active: 1.36%
COc1ccc(NC(=O)CSc2nnc(Cn3c(=O)sc4ccccc43)n2C)c(OC)c1,growth inhibition,[2],inconclusive: 41.6%
same,viability,[3],inactive: 101%
COc1ccc(Br)cc1C1CC(=O)N2CN(C)CSC2=C1C#N (stereo not drawn),growth inhibition,[2],inconclusive: 26.6%
same,viability,[4],inactive: 78.3%
COC(=O)Cn1c(=NC(=O)CSC(C)=O)sc2ccccc21,growth inhibition,[2],inconclusive: 38.3%
same,viability,[4],inactive: 101%
Cc1csc(NC(=O)CSc2nnc(Cc3cccn3C)n2CCc2ccccc2)n1,growth inhibition,[2],inconclusive: 38.9%
same,viability,[4],inactive: 82.6%
CC(C)Cn1c(SCC#N)nc2ccccc2c1=O,growth inhibition,[2],inactive: -14.3%
same,viability,[3],inconclusive: 88.6%
same,inhibition,[5],inactive: 1.18%
CCNc1nc(-c2ccc(Cl)cc2)cs1,growth inhibition,[2],inactive: 0.05%
same,viability,[3],inconclusive: 83.3%
Cc1ccc(-c2nn3c(C)nnc3s2)cc1NC(=O)c1ccc(Br)o1,growth inhibition,[2],inconclusive: 40.5%
O=C(Nc1nc(-c2ccccn2)cs1)c1ccc(Cl)s1,growth inhibition,[2],active: 96.8%
same,viability,[3],active: 10.6%
same,viability,[4],active: 22.1%
O=c1cc(CSc2nnc(-c3ccccc3)o2)c2ccccc2[nH]1,growth inhibition,[2],inactive: -3.43%
same,viability,[3],inactive: 99.2%
same,viability,[4],inactive: 102%
O=C1Cc2ccccc2C(=O)N1CCc1ccccc1,growth inhibition,[2],active: 66%
same,viability increase,[1],inconclusive: 10.9%
O=C(COC(=O)c1cc2ccccc2o1)c1ccccc1,growth inhibition,[2],inactive: 2%
same,viability,[4],inactive: 98.1%
CC(=O)NC(=S)c1c(N)n(Cc2ccccc2)c(=O)n(C)c1=O,growth inhibition,[2],inconclusive: 42.4%
same,viability,[3],inactive: 84.6%
CCOC(=O)N1CCN(C(=O)CN(c2ccc(Cl)c(C(F)(F)F)c2)S(C)(=O)=O)CC1,growth inhibition,[2],inactive: -17.2%
same,viability,[3],inconclusive: 95.3%
Cc1ccc(/C=c2/sc3nnc(-c4ccccc4Cl)n3c2=O)o1,growth inhibition,[2],inconclusive: 37.7%
same,viability,[4],inactive: 93%
c1cncc(-c2nnc(SCc3cccc4ccccc34)o2)c1,growth inhibition,[2],inconclusive: 12.9%
same,viability,[4],inactive: 91%
Oc1c(CN2CCc3ccccc3C2)cc(Cl)c2cccnc12,growth inhibition,[2],inconclusive: 42.7%
same,viability,[3],active: 1.27%
same,viability,[4],active: 0.66%
Cc1cccc(C2CC(c3ccccc3)Nc3ncnn32)c1 (stereo not drawn),viability increase,[1],inconclusive: 13.9%
COc1ccc(C2CC(=O)C3=C(C2)NC(C)=C(C#N)C3c2ccc(N(C)C)cc2)cc1 (stereo not drawn),growth inhibition,[2],inactive: 7.55%
same,viability,[3],inactive: 78.5%
O=C(CSCc1ccc(Cl)cc1)NCC1CCCO1 (stereo not drawn),viability increase,[1],inconclusive: 4.53%

# Reformatted bar-delimited: part of the list above.
smiles | measurement | setting | value
CCNc1nc(-c2ccc(Cl)cc2)cs1 | viability | [3] | inconclusive: 83.3%
Cc1ccc(-c2nn3c(C)nnc3s2)cc1NC(=O)c1ccc(Br)o1 | growth inhibition | [2] | inconclusive: 40.5%
O=C(Nc1nc(-c2ccccn2)cs1)c1ccc(Cl)s1 | growth inhibition | [2] | active: 96.8%
